Experimental data as given in patent publication US10940188B2, “Compounds and methods for treatment and prevention of Flavivirus infection” (priority 2016, dated 2021).

System: HEK293 cells
Assay: Toxicity IC50 (cell-killing activity) of the NS1 TR-FRET screen
Type: cell-based, human

CN[C@H]1CCc2cc(OC)c(OC)c(OC)c2-c2ccc(OC)c(=O)cc21 [Demecolcine]
Tox IC50: No
